The text below walks through data of doi:10.1101/2020.04.17.028118.

No constants are given. Whether binding was seen depends on the method and setting. In cells and extracts the contact can be indirect. Some binding calls cover weakened binding; strength is not graded here. Tags and fused reporters may be left off the sequences shown.

This experiment deals with T1, Sgs1 (bait of the Rmi1 co-IP, Fig 3D) (S. cerevisiae) (UniProt P35187).
T1 sequence: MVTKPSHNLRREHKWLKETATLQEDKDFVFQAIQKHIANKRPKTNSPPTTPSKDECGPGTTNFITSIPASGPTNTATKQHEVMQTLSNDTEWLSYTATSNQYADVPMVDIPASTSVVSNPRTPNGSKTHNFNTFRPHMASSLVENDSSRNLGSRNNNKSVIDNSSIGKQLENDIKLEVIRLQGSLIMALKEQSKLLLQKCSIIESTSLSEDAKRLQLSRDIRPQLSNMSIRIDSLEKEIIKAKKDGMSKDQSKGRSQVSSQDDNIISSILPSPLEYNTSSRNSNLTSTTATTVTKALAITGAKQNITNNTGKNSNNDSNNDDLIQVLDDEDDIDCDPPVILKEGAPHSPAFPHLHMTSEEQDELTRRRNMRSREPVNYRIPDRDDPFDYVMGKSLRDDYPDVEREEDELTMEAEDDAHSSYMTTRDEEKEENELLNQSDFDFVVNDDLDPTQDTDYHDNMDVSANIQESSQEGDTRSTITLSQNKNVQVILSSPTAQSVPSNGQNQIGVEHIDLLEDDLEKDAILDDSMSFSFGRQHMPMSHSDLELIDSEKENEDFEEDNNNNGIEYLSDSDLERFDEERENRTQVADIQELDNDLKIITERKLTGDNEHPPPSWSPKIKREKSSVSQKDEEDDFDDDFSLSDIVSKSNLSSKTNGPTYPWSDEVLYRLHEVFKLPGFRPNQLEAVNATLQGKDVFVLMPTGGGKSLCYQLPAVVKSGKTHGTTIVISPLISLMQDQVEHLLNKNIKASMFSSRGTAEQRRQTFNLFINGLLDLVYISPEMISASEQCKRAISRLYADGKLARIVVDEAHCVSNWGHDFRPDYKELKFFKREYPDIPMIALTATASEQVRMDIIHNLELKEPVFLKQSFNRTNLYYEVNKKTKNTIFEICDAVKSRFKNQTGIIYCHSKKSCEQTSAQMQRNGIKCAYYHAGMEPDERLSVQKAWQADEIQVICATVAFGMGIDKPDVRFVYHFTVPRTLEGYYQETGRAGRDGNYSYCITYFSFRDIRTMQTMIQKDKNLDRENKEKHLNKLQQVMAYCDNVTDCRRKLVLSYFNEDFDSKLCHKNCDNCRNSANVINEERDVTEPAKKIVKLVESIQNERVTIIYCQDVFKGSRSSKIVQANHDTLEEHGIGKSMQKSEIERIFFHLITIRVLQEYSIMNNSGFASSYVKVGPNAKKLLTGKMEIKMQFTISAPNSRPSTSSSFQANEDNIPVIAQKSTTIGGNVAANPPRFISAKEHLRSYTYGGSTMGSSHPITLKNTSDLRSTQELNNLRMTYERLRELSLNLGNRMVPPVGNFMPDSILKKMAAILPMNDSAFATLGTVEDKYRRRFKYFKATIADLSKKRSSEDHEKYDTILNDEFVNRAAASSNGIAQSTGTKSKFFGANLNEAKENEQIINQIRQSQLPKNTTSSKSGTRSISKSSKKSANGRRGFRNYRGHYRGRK
The experiment is described as follows: co-IP.

B1: Rmi1 (tagged, co-IP with Sgs1) (protein, UniProt Q02685 1-241)
chain: MSFSSILSQDITDDITPPAYSATLGSREQIVFRAYQNEPWLAGTASNLILDKKLVIVDRELLFQVLMVENITKSKLTQIDDIKTKLDPKKQKVDRLRSGAQGNGAKKYEVITQVDMEDDGNVADNNCAKENNSNNNSSAAKNKAVFKLTLQSKSGDVFFAINSTPISWSSCMLGSKIVILPGTVFNRGVFILKDSQVIFLGGINRVWNENRDQKFCDYLESKLQRDKQLVNGGSKKRKAND
In the case of B1, the binding entry is on record as “binds”.
